From PubChem BioAssay AID1671190 (National Center for Advancing Translational Sciences (NCATS), 2021)
Values joined by “and” are separate entries in the source; they are usually repeats but may differ in a detail not shown here. Identical values can stand only once. Out of some 580,000 compounds screened, about 6,100 (1.1%) were called active. The inconclusive results got no clear call from the source; some entries with a clear call stand among them for comparison. Calls come from the whole dose curve; as a rule, active = well fitted inhibition curve with a large enough effect; inconclusive = small, poorly fitted or top-dose-only effect, or another doubt; inactive = no such curve, though single readings can be large or run the other way. Potencies beside an inconclusive call are fits to weak or partial responses and may not hold up.

The chains behind the UniProt entries cited, without tags or fusion partners.
UniProt P18054, whole entry, looked up: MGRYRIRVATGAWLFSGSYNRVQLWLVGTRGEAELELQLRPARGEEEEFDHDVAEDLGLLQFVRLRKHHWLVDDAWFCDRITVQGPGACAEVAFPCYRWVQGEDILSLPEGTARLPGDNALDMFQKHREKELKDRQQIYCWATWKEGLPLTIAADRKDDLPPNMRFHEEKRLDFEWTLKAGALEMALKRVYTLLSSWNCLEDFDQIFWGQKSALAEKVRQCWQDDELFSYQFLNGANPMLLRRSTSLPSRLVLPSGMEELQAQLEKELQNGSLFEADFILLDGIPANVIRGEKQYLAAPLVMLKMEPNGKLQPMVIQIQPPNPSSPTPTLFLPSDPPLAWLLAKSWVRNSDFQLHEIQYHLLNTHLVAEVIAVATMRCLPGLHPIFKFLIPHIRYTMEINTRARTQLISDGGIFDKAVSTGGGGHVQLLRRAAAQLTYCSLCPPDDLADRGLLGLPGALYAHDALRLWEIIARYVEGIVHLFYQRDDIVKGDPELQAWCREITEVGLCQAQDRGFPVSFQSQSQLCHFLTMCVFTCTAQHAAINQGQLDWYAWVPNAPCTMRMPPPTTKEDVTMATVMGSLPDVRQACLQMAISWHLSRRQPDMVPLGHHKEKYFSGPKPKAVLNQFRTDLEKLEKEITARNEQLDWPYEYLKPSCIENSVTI

Target: Polyunsaturated fatty acid lipoxygenase ALOX12 (Homo sapiens) (UniProt P18054)
Experiment: Primary qHTS assay for inhibitors of human arachidonate 12S-lipoxygenase (ALOX12): Round 2
Settings: purified 12hLO, xylenol orange hydroperoxide absorbance; activity change, negative = inhibition: at 108 µM (top of the series) unless noted
Method in brief: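 Hydroperoxide product was detected by ferrous iron/xylenol orange as the 573 to 405 nm absorbance ratio. Arachidonic acid at 40 uM (final) was turned over for 30 min at room temperature by 150 nM human 12hLO, pH 7.0 Hepes buffer, after 15 min compound preincubation.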
% is set by controls: 0 for no effect and ±100 for the full control effect; potency is the fitted concentration of half-maximal effect.

SMILES | Potency | activity change, negative = inhibition
CCCC(c1nnnn1Cc1ccco1)N1CCN(C2CCCC2)CC1 (stereo unspecified) | inconclusive: 35.5 µM [inhibitor, partial curve, poor fit] | –
Cc1cc(C)c(NC(=O)CN2C(=O)CCn3nc(-c4cccn4C)cc32)c(C)c1 | inconclusive: 56.2 µM [inhibitor, partial curve, poor fit] | –
O=C(N/N=C/c1sc(=O)[nH]c1-[n+]1ccccc1)c1ccccc1[O-] | inactive | –
CC(=O)NS(=O)(=O)c1ccc(NC(=O)CC(C)c2ccccc2)cc1 (stereo unspecified) | inconclusive: 44.7 µM [inhibitor, partial curve, poor fit] | –
Cc1nc(-c2ccc(S(=O)(=O)Nc3cccc(Cl)c3)cc2)co1 | inconclusive: 2.51 µM [inhibitor, full curve, poor fit] | –
CN(C)c1ccc(-c2nc(Nc3ccncc3)c3ccccc3n2)cc1 | inconclusive: 112 µM [inhibitor, single point] | –
CC1CCN(CC(=O)Nc2ccc(C(=O)N3CCCCC3)cc2)CC1 | inconclusive: 0.398 µM [inhibitor, full curve, poor fit] | –
Cc1cccc(NC(=O)C(=O)N/N=C/c2ccncc2)c1 | inactive | –
O=C(O)c1cc(/C=C/c2ccc(N3CCOCC3)cc2)nc2ccccc12 | inactive | –
CCc1nc(Nc2cccc(OC)c2)c2oc3ccccc3c2n1 | inconclusive: 28.2 µM [inhibitor, partial curve] | –
CCCCNc1cc(N2CCN(C3CCCCC3)CC2)c2noc3c2c1C(=O)c1ccccc1-3 | inactive | –
C=CC[C@@H](CC(=O)N[C@@H](CO)Cc1ccccc1)C(=O)N[C@H](COC(=O)[C@@H](CC=C)CC(=O)OC(C)(C)C)Cc1c[nH]c2ccccc12 | inconclusive: 112 µM [inhibitor, single point] | –
Cc1ccc(S(=O)(=O)N2[C@@H](CO)CO[C@H]2CC(=O)c2ccccc2)cc1 | inconclusive: 100 µM [inhibitor, single point] | –
CCc1cc(-c2nnn(CCC3COCCO3)c2CC)cc(CC)c1-c1cn(Cc2ccccc2)nn1 (stereo unspecified) | inconclusive: 0.891 µM [inhibitor, partial curve, poor fit] | –
CCOC(=O)C1CCCN(Cc2c(C(=O)N3CCCCC3)nc3c(C)cccn23)C1 (stereo unspecified) | inactive | –
CCCOCCc1nc2c([nH]1)CC(C)(C)CNC2=O | inconclusive: 11.2 µM [inhibitor, partial curve] | –
Nc1cc([N+](=O)[O-])ccc1Nc1ccc(O)cc1 | inconclusive: 44.7 µM [inhibitor, partial curve, poor fit] | –
CCn1c(C2CCCN(C(=O)c3sc(C(C)C)nc3C)C2)nn(C)c1=O (stereo unspecified) | inconclusive: 70.8 µM [inhibitor, partial curve, poor fit] | –
CCCn1c2ccccc2c2nnc(SCCN3CCOCC3)nc21 | inconclusive: 35.5 µM [inhibitor, partial curve, poor fit] | –
CO/N=C\CC(=O)Nc1ccc(Oc2ccccc2)cc1 | inactive | –
CCCCc1cc(=O)oc2cc(C)cc(OC(C)C(=O)NCc3ccccn3)c12 (stereo unspecified) | inactive | –
CN(C)c1ccc(-c2ccnc3c2CC(C)(C(=O)Nc2cccc(Oc4ccccc4)c2)O3)cc1 (stereo unspecified) | inconclusive: 100 µM [inhibitor, single point] | –

SMILES | Potency | activity change, negative = inhibition
CCNC(=O)c1c(O)c2c([nH]c1=O)CCCC2 | inactive | –
Nc1ccc(C(F)(F)F)c(C(F)(F)F)c1 | inactive | –
O=C(Cc1ccccc1)Nc1ccc2oc(-c3ccc(F)cc3)nc2c1 | inconclusive: 112 µM [inhibitor, single point] | –
NC(=O)C1CCN(Cc2nc3cc(Cl)ccc3c(=O)[nH]2)CC1 | active: 44.7 µM and active: 12.6 µM | –
O=C1C2=C(c3ccccc31)[N+](=O)[C@@H]1CCCC[C@@H]1N2[O-] | inconclusive: 3.16 µM [inhibitor, full curve, poor fit] | –
O=C(Nc1cccc(Cl)c1)NN(c1ccccc1)C1CCS(=O)(=O)C1 (stereo unspecified) | inconclusive: 112 µM [inhibitor, partial curve, poor fit] | –
CC1CCN(CC(CS(=O)(=O)c2ccc([N+](=O)[O-])cc2)N2CCC(C)CC2)CC1 (stereo unspecified) | inactive | –
ClC1=C(Cl)C(Cl)=C(Cl)C1=C/C=C/c1ccccc1 | inconclusive: 44.7 µM [inhibitor, partial curve, poor fit] | –
Cc1[nH]c2ccccc2c1/C=N/NC(=S)NCc1ccccc1 | active: 35.5 µM | –
CC(=O)C1=C(O)C(=O)N(c2ccc(O)cc2)C1c1ccc(Cl)cc1 (stereo unspecified) | inconclusive: 2 µM [inhibitor, full curve] | –
N#CC1=C(N)OC2=C(CC/C2=C\c2ccccc2Cl)C1c1ccccc1Cl (stereo unspecified) | inconclusive: 79.4 µM [inhibitor, single point] | –
N#C/C(=C\c1cn(CC(=O)NCc2ccco2)c2ccccc12)C(=O)NCc1ccco1 | inconclusive: 35.5 µM [inhibitor, partial curve, poor fit] | –
CN1/C(=C/C(=O)C(F)(F)C(F)(F)C(F)(F)F)Sc2ccccc21 | inactive | –
Cc1cccc(S(=O)(=O)C(C#N)c2nc3ccccc3nc2N2CCOCC2)c1 (stereo unspecified) | inconclusive: 31.6 µM [inhibitor, partial curve] | –
O=C(c1ccc(C(F)(F)F)cc1)N1CCC2(CC1)C(=NC1CCCCC1)NC(=O)N2c1cccnc1 | – | inactive: 13.6% [at 6.33 µM]
Cc1ccccc1Cn1c(N2CCC(C(=O)N3CCCC3)CC2)nc2ccccc21 | inconclusive: 31.6 µM [inhibitor, partial curve, poor fit] | –
CCOc1ccc2nc(NC(=O)Nc3cccs3)sc2c1 | inconclusive: 50.1 µM [inhibitor, partial curve, poor fit] | –
Cc1ccc(OCCC(=O)OC(C)C(=O)Nc2ccc(Cl)cn2)cc1 (stereo unspecified) | inconclusive: 112 µM [inhibitor, partial curve, poor fit] | –
Cc1cc(C)cc(NC(=O)CSc2nc3c(cnn3-c3ccc(F)cc3)c(=O)[nH]2)c1 | inactive | –
Cc1nc2ccc(S(=O)(=O)NCC(=O)Nc3ccc(C)c(Cl)c3)cc2s1 | inactive | –
O=C(N/N=C/c1ccc([N+](=O)[O-])o1)c1cn2ccc3ccccc3c2n1 | inactive | –
O=C(CS(=O)(=O)c1ccc(F)cc1)Nc1nccs1 | inconclusive: 70.8 µM [inhibitor, partial curve, poor fit] | –

SMILES | Potency | activity change, negative = inhibition
Cc1ccc(C)c(N2CCN(C(=O)c3cccn4c(=O)c5ccccc5nc34)CC2)c1 | inconclusive: 158 µM [inhibitor, partial curve, poor fit] | –
CC(C)C[C@@H](N)C(=O)O | inconclusive: 6.24 µM [inhibitor, partial curve] and inconclusive: 7.94 µM [inhibitor, full curve, poor fit] | –
O=C(CN1CCOCC1)N1CC(=O)N2[C@@H](CO)[C@H](c3ccc(Br)cc3)[C@@H]2C1 | inactive | –
Cc1cc(C)cc(NC(=O)CCc2nc3sc4c(c3c(=O)[nH]2)CCCC4)c1 | inconclusive: 63.1 µM [inhibitor, partial curve, poor fit] | –
O=C(/C=C/c1ccc(F)cc1)c1cccc(N2CCOCC2)c1 | inconclusive: 35.5 µM [inhibitor, single point] | –
Cc1cc(O)c(C(=O)/C=C/c2ccccc2)cc1Cl | inactive | –
CCc1ccc(C(=O)c2cn(CC(=O)Nc3ccc(OC)cc3)c3cc4c(cc3c2=O)OCCO4)cc1 | inactive | –
CN1CC(=O)N2CCN(C(=O)Cn3nnc4ccccc4c3=O)CC2C1=O (stereo unspecified) | inactive | –
COc1cc2c(cc1OC)C(c1ccc(OC)c(OC)c1OC)CC(=O)N2 (stereo unspecified) | inconclusive: 0.708 µM [inhibitor, full curve, poor fit] | –
CN(CC(=O)Nc1cccc(F)c1)C(=O)c1cc(=O)[nH]c2ccccc12 | inconclusive: 112 µM [inhibitor, single point] | –
O=C(CSc1ncc2c(n1)-c1cc(Cl)ccc1N(Cc1ccccc1)S2(=O)=O)NCc1ccccc1 | inconclusive: 112 µM [inhibitor, partial curve, poor fit] | –
COc1ccccc1NC(=O)CCn1c(=S)oc2ccccc21 | inconclusive: 89.1 µM [inhibitor, partial curve, poor fit] | –
COc1ccc2[nH]c(C(=O)NCc3ccco3)cc2c1OC | inconclusive: 56.2 µM [inhibitor, single point] | –
CCCCOc1c(CNC(C)c2ncccc2C)cccc1OC (stereo unspecified) | inactive | –
CN(Cc1ccc(Br)s1)C(=O)CNC(=O)c1ccc2c(c1)OCO2 | inactive | –
Cc1cc2cc(NS(=O)(=O)c3ccc(C)c(C)c3)ccc2[nH]1 | active: 35.5 µM | –
O=c1[nH]c2ccc(Cl)cc2c(-c2ccccc2)c1SC(=S)N1CCCCC1 | inconclusive: 22.4 µM [inhibitor, partial curve] | –
COC(=O)C1=C(C)N(Cc2cccc(C(F)(F)F)c2)C(=NCc2ccc3c(c2)OCO3)NC1c1cccc(F)c1 (stereo unspecified) | inconclusive: 79.4 µM [inhibitor, partial curve, poor fit] | –
COC(=O)c1sc(NC(=O)c2csc3c2CCCC3)nc1C | inconclusive: 50.1 µM [inhibitor, partial curve, poor fit] | –
O=C(Cc1cccs1)Nc1ccc(N2CCOCC2)cc1 | inconclusive: 12.6 µM [inhibitor, partial curve, poor fit] | –
COc1ccccc1CNC(=O)C12CC3CC(CC(C3)C1)C2 | inconclusive: 158 µM [inhibitor, single point] | –
Fc1ccc(Nc2c(-c3c[nH]c4ccccc34)nc3ccccn23)cc1 | inconclusive: 50.1 µM [inhibitor, partial curve, poor fit] | –
